{"source": "PubChem BioAssay AID1508597 (Cure First, 2020)", "test": "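Survival screen with siRNA in ovarian cancer cells derived from patients, with or without rucaparib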 (primary screen)", "cells": "human ovarian carcinoma lines grown from tumours: OCI-P5x (papillary serous) and OCI-C5x (clear cell)", "reagents": "siRNA pool against human genes, 1.25 pmol siRNA per well", "duration": "72 h or 96 h, depending on the cell culture", "challenge": "rucaparib 20 µM (about IC30) or vehicle, present until read-out", "rucaparib or vehicle": "Rucaparib", "cell line": "OCI-C5x (clear cell)", "measurement": "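Luminescent ATP-based viability assay read 72 or 96 h after transfection, depending on culture, given as normalised percent viability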", "reading the numbers": "viability, normalised: higher = more viable cells remaining", "call rule": "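a well counts as a hit if its normalised viability is under 80 percent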", "calls": "active = viability under 80%; inactive = viability 80% or more", "note": "This is a random part of the about 2,100 reagents, in one setting of the screen. 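Calls flag viability under 80% in either arm, not effects specific to rucaparib; the reference for percent is not stated.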 Not given: the 100% reference."}
{"gene symbol": "L3MBTL4", "technical replicate": "1", "viability, normalised (%)": 41.6, "Call": "active"}
{"gene symbol": "L3MBTL4", "technical replicate": "2", "viability, normalised (%)": 40.6, "Call": "active"}
{"gene symbol": "L3MBTL4", "technical replicate": "3", "viability, normalised (%)": 38, "Call": "active"}
{"gene symbol": "GTF2H3", "technical replicate": "1", "viability, normalised (%)": 52.1, "Call": "active"}
{"gene symbol": "GTF2H3", "technical replicate": "2", "viability, normalised (%)": 46.4, "Call": "active"}
{"gene symbol": "GTF2H3", "technical replicate": "3", "viability, normalised (%)": 38.9, "Call": "active"}
{"gene symbol": "CELF1", "technical replicate": "1", "viability, normalised (%)": 36.1, "Call": "active"}
{"gene symbol": "CELF1", "technical replicate": "2", "viability, normalised (%)": 45, "Call": "active"}
{"gene symbol": "CELF1", "technical replicate": "3", "viability, normalised (%)": 44.8, "Call": "active"}
{"gene symbol": "ZGPAT", "technical replicate": "1", "viability, normalised (%)": 66.4, "Call": "active"}
{"gene symbol": "ZGPAT", "technical replicate": "2", "viability, normalised (%)": 81.6, "Call": "inactive"}
{"gene symbol": "ZGPAT", "technical replicate": "3", "viability, normalised (%)": 61, "Call": "active"}
{"gene symbol": "TAF10", "technical replicate": "1", "viability, normalised (%)": 60.3, "Call": "active"}
{"gene symbol": "TAF10", "technical replicate": "2", "viability, normalised (%)": 60.5, "Call": "active"}
{"gene symbol": "TAF10", "technical replicate": "3", "viability, normalised (%)": 48.3, "Call": "active"}
{"gene symbol": "SMUG1", "technical replicate": "1", "viability, normalised (%)": 55.7, "Call": "active"}
{"gene symbol": "SMUG1", "technical replicate": "2", "viability, normalised (%)": 56.7, "Call": "active"}
{"gene symbol": "SMUG1", "technical replicate": "3", "viability, normalised (%)": 37.7, "Call": "active"}
{"gene symbol": "GDPD2", "technical replicate": "1", "viability, normalised (%)": 35.6, "Call": "active"}
{"gene symbol": "GDPD2", "technical replicate": "2", "viability, normalised (%)": 36, "Call": "active"}
{"gene symbol": "GDPD2", "technical replicate": "3", "viability, normalised (%)": 37.3, "Call": "active"}
{"gene symbol": "EIF4A3", "technical replicate": "1", "viability, normalised (%)": 15.2, "Call": "active"}
{"gene symbol": "EIF4A3", "technical replicate": "2", "viability, normalised (%)": 16.9, "Call": "active"}
{"gene symbol": "EIF4A3", "technical replicate": "3", "viability, normalised (%)": 17.3, "Call": "active"}
{"gene symbol": "RCOR2", "technical replicate": "1", "viability, normalised (%)": 48.7, "Call": "active"}
{"gene symbol": "RCOR2", "technical replicate": "2", "viability, normalised (%)": 49, "Call": "active"}
{"gene symbol": "RCOR2", "technical replicate": "3", "viability, normalised (%)": 37.6, "Call": "active"}
{"gene symbol": "PRDM2", "technical replicate": "1", "viability, normalised (%)": 41.3, "Call": "active"}
{"gene symbol": "PRDM2", "technical replicate": "2", "viability, normalised (%)": 41.5, "Call": "active"}
{"gene symbol": "PRDM2", "technical replicate": "3", "viability, normalised (%)": 42.1, "Call": "active"}
{"gene symbol": "POLR2I", "technical replicate": "1", "viability, normalised (%)": 44.8, "Call": "active"}
{"gene symbol": "POLR2I", "technical replicate": "2", "viability, normalised (%)": 55.7, "Call": "active"}
{"gene symbol": "POLR2I", "technical replicate": "3", "viability, normalised (%)": 48.1, "Call": "active"}

3 consecutive entries already listed, for reference:
{"gene symbol": "TAF10", "technical replicate": "2", "viability, normalised (%)": 60.5, "Call": "active"}
{"gene symbol": "TAF10", "technical replicate": "3", "viability, normalised (%)": 48.3, "Call": "active"}
{"gene symbol": "SMUG1", "technical replicate": "1", "viability, normalised (%)": 55.7, "Call": "active"}
